Measured values: publication PMC12888869 (Antimicrobial Agents and Chemotherapy, 2025)
Some peptides are written in HELM: one residue between dots, names in brackets for other building blocks, links after the first $.

assay: peptide made by a vendor (Fmoc solid-phase peptide synthesis); conditions: whole synthesis, high-performance liquid chromatography

| Substance | final HPLC purity [%] |
| --- | --- |
| PEPTIDE1{F.L.A.L.A.L.I.Q.E.A.I.A.K.L.K.[am]}$$$$V2.0 | 95.92 |
| PEPTIDE1{F.L.K.L.R.L.W.G.K.L.L.W.K.L.K.[am]}$$$$V2.0 | 95.34 |
| PEPTIDE1{F.L.K.L.R.L.W.G.R.L.L.W.K.L.K.[am]}$$$$V2.0 | 96.68 |
| PEPTIDE1{F.L.K.L.R.L.W.K.K.L.L.W.K.L.K.[am]}$$$$V2.0 | 95.13 |
| PEPTIDE1{F.L.K.L.R.L.W.K.R.L.L.W.K.L.K.[am]}$$$$V2.0 | 95.43 |
| PEPTIDE1{F.L.K.L.R.L.W.R.K.L.L.W.K.L.K.[am]}$$$$V2.0 | 95.21 |
| PEPTIDE1{F.L.K.L.R.L.W.R.R.L.L.W.K.L.K.[am]}$$$$V2.0 | 95.25 |
